Measurements reported in PubChem BioAssay AID504791 (Drosophila RNAi Screening Center, 2011).
Aim: 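Factors in Argonaute-based small RNA production and activity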 (primary screen). Cells: Drosophila S2-derived reporter cells. Knock-down reagent: long dsRNA against Drosophila genes, about 150-250 ng dsRNA per well (siRNA assay); about 80-120 ng (miRNA assay). Duration: about 5 days (siRNA assay); about 4 days (miRNA assay). Challenge: copper sulfate induction of reporters: 25 µM (siRNA assay); 200 mM stated (miRNA assay), 1-2 days before reading. Measured: 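Dual luciferase assay: Renilla to firefly signal ratio in each well, scaled to the mean ratio of its plate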. Active means: 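a well was a first-pass pick when its plate-scaled ratio rose above 1.5 (siRNA assay) or 1.6 (miRNA assay), or dropped below 0.6; a gene counted only if two separate dsRNAs agreed on retest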.
The screen tested about 23,000 reagents; this is an unselected part of those with a known target gene and a result. In the full data, 199 (0.86%) got an active call. 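Plate-scaled ratios behind the calls are not deposited; printed light signals are raw; many rows marked increased or decreased are still called inactive.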 Unmarked entries are inactive. Further read-outs or replicates are left out here. No sequences are given here. Not stated in the record: the direction of the score.

predicted target | DRSC id | stable siRNA reporter change | miRNA reporter change | stable assay Renilla, run 1 (luminescence)
Sting | DRSC06615 | – | – | 6168
beta4GalT7 | DRSC14385 | – | – | 6591
ppk19 | DRSC15321 | – | – | 7228
Debcl | DRSC04965 | – | – | 37243
CG7110 | DRSC03011 | – | – | 5522
CG7110 | DRSC03012 | – | – | 7834
Ir31a | DRSC22358 | – | – | 9056
CG15909 | DRSC04977 | – | – | 7440
CtsL2 | DRSC06978 | – | – | 7688
S-Lap4 | DRSC10957 | reporter ratio lowered past the hit cutoff | – | 5148
CG42399 | DRSC00322 | – | – | 7979
CG42399 | DRSC00661 | – | – | 7484
Gr94a | DRSC13597 | – | – | 4844
p38b | DRSC03586 | – | – | 7164
Phk-3 | DRSC04547 | – | – | 6350
Mtpbeta | DRSC04663 | – | – | 19002
CG43386 | DRSC17980 | – | – | 4639
wam | DRSC15171 | – | – | 7215
CG9231 | DRSC11054 | – | – | 9657
CG33768 | DRSC11715 | – | reporter ratio lowered past the hit cutoff | 7757
CG9777 | DRSC20208 | – | – | 6231
CG7369 | DRSC11822 | – | – | 4487
MBD-like | DRSC16996 | – | – | 6044
hrg | DRSC07502 | reporter ratio raised past the hit cutoff (active) | – | 8594
trk | DRSC03625 | – | – | 7795
CG42445 | DRSC10858 | – | – | 7402
CG11307 | DRSC11648 | – | – | 3359
CG5618 | DRSC11780 | reporter ratio lowered past the hit cutoff | – | 4699
p38a | DRSC16743 | – | – | 6236
CG11498 | DRSC14315 | – | – | 7690
CG14110 | DRSC10113 | – | – | 8700
MFS18 | DRSC00452 | – | – | 65489
CG18048 | DRSC12573 | – | – | 6055
CR9337 | DRSC03212 | – | – | 2.06e5
